From the supplement of paper PMC9015667
Where a name gives a salt, the structure may show the parent alone. This is one part of the list. Repeats are few or missing, and single values can be far off.

What was measured:
Assay in all cases: reduction in cell viability relative to untreated/vehicle; higher = more growth inhibition
Details in all cases: 200 nM; 72 h
M229P = tested on: M229P (parental melanoma line)
M229R = tested on: M229R (matched melanoma line resistant to BRAF inhibitors)
M238P = tested on: M238P (parental melanoma line)
M238R = tested on: M238R (matched melanoma line resistant to BRAF inhibitors)
M249P = tested on: M249P (parental melanoma line)
M249R = tested on: M249R (matched melanoma line resistant to BRAF inhibitors)
UACC62P = tested on: UACC62P (parental melanoma line)
UACC62R = tested on: UACC62R (matched melanoma line resistant to BRAF inhibitors)

Structure (SMILES) | reduction in cell viability (M229P) [%] | reduction in cell viability (M229R) [%] | reduction in cell viability (M238P) [%] | reduction in cell viability (M238R) [%] | reduction in cell viability (M249P) [%] | reduction in cell viability (M249R) [%] | reduction in cell viability (UACC62P) [%] | reduction in cell viability (UACC62R) [%]
N[C@@H](Cc1ccc(N(CCCl)CCCl)cc1)C(=O)O [Melphalan] | < 0 | < 0 | < 0 | < 0 | < 0 | < 0 | 0.49 | < 0
O=C1C=CC[C@@H]2[C@H]3CCCN4CCC[C@@H](CN12)[C@@H]34 [Sophocarpine] | < 0 | < 0 | < 0 | < 0 | < 0 | < 0 | < 0 | < 0
Cc1c(C(=O)c2cccc3ccccc23)c2cccc3c2n1[C@H](CN1CCOCC1)CO3 | < 0 | < 0 | < 0 | < 0 | < 0 | < 0 | 0.01 | < 0
CCOC(=O)Nc1ccc(NCc2ccc(F)cc2)cc1N [Retigabine] | < 0 | < 0 | < 0 | < 0 | < 0 | < 0 | < 0 | < 0
CC(C)CC(N(C)C)C1(c2ccc(Cl)cc2)CCC1 (stereo not drawn) [Sibutramine hydrochloride] | < 0 | < 0 | < 0 | < 0 | < 0 | < 0 | < 0 | < 0
COc1ccc(N(C(=O)Oc2c(C)cccc2C)c2ccnc(Nc3ccc(N4CCN(C)CC4)cc3)n2)c(OC)c1 | < 0 | < 0 | < 0 | < 0 | < 0 | < 0 | < 0 | < 0
O=C(N[C@H]1CN2CCC1CC2)c1ccc(Cl)cc1 | < 0 | < 0 | < 0 | < 0 | 6.46 | < 0 | < 0 | < 0
C[C@](O)(COc1ccc(C#N)cc1)C(=O)Nc1ccc(C#N)c(C(F)(F)F)c1 [Ostarine] | < 0 | < 0 | < 0 | < 0 | < 0 | < 0 | 5.22 | < 0
COc1ccc2c(c1OC)CN1CCc3cc4c(cc3C1C2)OCO4 (stereo not drawn) [Tetrahydroberberine] | < 0 | < 0 | < 0 | < 0 | < 0 | < 0 | < 0 | < 0
C=C[C@H]1CN2CC[C@H]1C[C@H]2[C@H](O)c1ccnc2ccccc12 [Cinchonidine] | < 0 | < 0 | < 0 | < 0 | < 0 | < 0 | < 0 | < 0
Cc1sc2c(c1C)C(c1ccc(Cl)cc1)=N[C@@H](CC(=O)OC(C)(C)C)c1nnc(C)n1-2 | 22.4 | 14.9 | 23.4 | < 0 | 21.3 | 39.1 | 23.9 | 15.2
CSCC[C@H](NC(=O)[C@H](Cc1ccccc1)NC(=O)CNC(=O)CNC(=O)[C@@H](N)Cc1ccc(O)cc1)C(=O)O [Metenkephalin] | < 0 | < 0 | < 0 | < 0 | < 0 | < 0 | < 0 | < 0
CN1[C@@H]2CC[C@H]1C[C@@H](OC(=O)C(CO)c1ccccc1)C2 (stereo partly drawn) [Atropine] | < 0 | < 0 | < 0 | < 0 | < 0 | < 0 | 1.53 | < 0
C[C@H]1[C@@H](CC(C[C@H]2O[C@@H]3O[C@]4(C)CC[C@H]5[C@H](C)CC[C@@H]([C@H]2C)[C@@]35OO4)CS(=O)(=O)c2ccc(COC(=O)N(C)C)cc2)O[C@@H]2O[C@]3(C)CC[C@H]4[C@H](C)CC[C@@H]1[C@@]24OO3 (stereo partly drawn) [ASR-isobudimer-SO2Ph-4-CH2OC(O)NMe2] | 13.4 | 2.93 | 28.6 | 22.1 | 53.8 | 49.2 | 34.2 | 77.3
C#C[C@]1(O)C=C[C@H]2[C@@H]3CCC4=CC(=O)CC[C@@H]4[C@H]3CC[C@@]21CC [Gestodene] | < 0 | < 0 | < 0 | < 0 | < 0 | < 0 | 3.23 | < 0
CC[C@@]1([C@@H]2O[C@@H]([C@H]3O[C@@](O)(CO)[C@H](C)C[C@@H]3C)C[C@@H]2C)CC[C@H]([C@]2(C)CC[C@]3(C[C@H](O)[C@@H](C)[C@@H]([C@@H](C)[C@@H](OC)[C@H](C)C(=O)O)O3)O2)O1 [Monensin sodium salt] | 20.1 | 20.7 | 32.5 | < 0 | < 0 | < 0 | 12.6 | 17.9
COc1ccc(CC2NCCc3cc(OC)c(OC)cc32)cc1OC (stereo not drawn) [Tetrahydropapaverine] | < 0 | < 0 | < 0 | < 0 | < 0 | 6.24 | 2.16 | < 0
O=C(O)C(=O)CBr [3-Bromopyruvate] | < 0 | 6.2 | < 0 | < 0 | < 0 | 3.4 | < 0 | < 0
O=C(NCC1CCOCC1)c1cnc(Nc2ccc(Cl)cc2Cl)nc1C(F)(F)F | < 0 | < 0 | < 0 | < 0 | < 0 | 12.3 | 11.4 | < 0
C[C@@H]1O[C@@H](O[C@H]2C[C@@H](O)[C@]3(CO)[C@H]4[C@H](O)C[C@]5(C)[C@@H](C6=CC(=O)OC6)CC[C@]5(O)[C@@H]4CC[C@]3(O)C2)[C@H](O)[C@H](O)[C@H]1O [G-Strophanthin] | 74 | 83.6 | 72 | 82.1 | 78 | 86.3 | 73 | 63.9
CC(C)(C)c1cc(C=C(C#N)C#N)cc(Br)c1O | < 0 | 6.8 | < 0 | < 0 | < 0 | < 0 | < 0 | < 0

An excerpt of these results, as labelled records.
Cc1c(C(=O)c2cccc3ccccc23)c2cccc3c2n1[C@H](CN1CCOCC1)CO3
  reduction in cell viability (M229P) [%]: < 0
  reduction in cell viability (M229R) [%]: < 0
  reduction in cell viability (M238P) [%]: < 0
  reduction in cell viability (M238R) [%]: < 0
  reduction in cell viability (M249P) [%]: < 0
  reduction in cell viability (M249R) [%]: < 0
  reduction in cell viability (UACC62P) [%]: 0.01
  reduction in cell viability (UACC62R) [%]: < 0
O=C(N[C@H]1CN2CCC1CC2)c1ccc(Cl)cc1
  reduction in cell viability (M229P) [%]: < 0
  reduction in cell viability (M229R) [%]: < 0
  reduction in cell viability (M238P) [%]: < 0
  reduction in cell viability (M238R) [%]: < 0
  reduction in cell viability (M249P) [%]: 6.46
  reduction in cell viability (M249R) [%]: < 0
  reduction in cell viability (UACC62P) [%]: < 0
  reduction in cell viability (UACC62R) [%]: < 0
